# Primary screen of a compound library

The filed quantity is “Percent Effect” (%).
The record does not define 0% and 100%; most values in the screen are far below 50% and negative numbers occur (in some assays of this library far below -100).
Compounds were drawn at random from those tested, without regard to their results.

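Phenotypic screen: M. tuberculosis growth, cholesterol and DPPC medium, 4 days; the read-out is not stated. Compounds at 500 µM. The record gives no direction; compounds that gave an IC50 in retests scored well above the rest, so higher reads as more growth inhibition. About 18,000 compounds were tested under these conditions; 5% (about 900) showed 50% or more at least once.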

Result for Cc1noc(OCC(=O)N(C)Cc2ccc(F)cc2)n1 was -2.884%. CCn1cc(C(=O)Nc2cc(C)on2)cn1 read 22.09%. CCc1noc(Cn2cnc3ccccc3c2=O)n1 read 30.14%. With Cc1nc(C)c(C(=O)NCCC2CCCN2C)o1 (centres unmarked) the screen gave -2.291%. CC(C)c1cc(C(=O)N[C@H]2CC[C@H]2N)on1 gave 14.74%. For O=C1CCCN1CCOc1cccc(C(F)(F)F)n1 the result was 9.63%. NC(=O)CN1CCCC1c1ccsc1 (centres unmarked) read 12.12%.

With CCC(C)NC(=O)c1cnn(-c2ccccc2)n1 (centres unmarked) the screen gave -10.35%. CC(=O)Nc1ccc(CCN)cc1 read 12.82%. With CSCCC(NS(=O)(=O)c1ccc(C)cc1)C(N)=O (centres unmarked) the screen gave -9.904%. Result for Cc1ccc(C(=O)NCCN2CCOCC2)c(C)c1 was -2.337%. Result for CCC1(CO)CCCN(C(=O)CCc2cnccn2)C1 (centres unmarked) was 2.342%. With Cc1nnc(C2CCCN2)o1 (centres unmarked) the screen gave -4.692%. For Cc1cccc(N2CCCC(N)C2)n1 (centres unmarked) the result was 81.39%.

Result for CCC(N)(CC)CNS(=O)(=O)c1cccnc1 was -2.214%. Cc1nnnn1CCC(=O)NCc1csc(C(C)C)n1 read -1.976%. Result for CC(=O)N1CCCCCC1C1CCNCC1 (centres unmarked) was 27.89%. O=C1CC(CNc2ncccn2)c2ccccc2N1 (centres unmarked) gave -1.276%. COCCNC(C)(CO)C1CCCCC1 (centres unmarked) gave -3.38%. NC1CCN(c2cccc(Br)c2)C1 (centres unmarked) gave -7.517%. CN(Cc1ccncc1)C(=O)CN read -4.35%.

CCC(=O)c1cccc(S(=O)(=O)NC(CN)C2CC2)c1 (centres unmarked) gave 40.63%. For CN(CC(=O)Nc1sccc1C(N)=O)Cc1ccco1 the result was 29.12%. CNS(=O)(=O)CCNC(=O)C(C)c1ccccc1 (centres unmarked) read 6.124%. Result for CC(C)N(CC(C)(C)O)C(=O)NCC1CCCO1 (centres unmarked) was 6.343%. Result for COc1ccc(C(=O)NCC2(C)COC2)c(F)c1F was 2.475%. With CCC1Oc2c(Cl)cccc2NC1=O (centres unmarked) the screen gave 54.82%. For CCc1ccc(CN2CCCCC2C(=O)NC)nc1 (centres unmarked) the result was -4.732%.

Result for Cc1occc1C(=O)NCc1ccnc(N(C)C)c1 was 32.88%. COCCc1noc(C2CCN(CC(N)=O)CC2)n1 read -12.44%. For CCOc1ncccc1C(=O)N1CCOCC(CO)C1 (centres unmarked) the result was 7.105%. Result for COCCNC(=O)C1CC(=O)N(c2ccccc2F)C1 (centres unmarked) was -11.51%. For CC(CO)NS(=O)(=O)Cc1ccc(F)c(Cl)c1 (centres unmarked) the result was 9.932%. Cn1ccnc1C1CCCN1C(=O)c1ccccc1F (centres unmarked) read 5.392%. With COCCNCCNC(=O)c1ccc(Cl)c(C)c1 the screen gave 33%.

N#CCCNCC1CCOC1 (centres unmarked) gave 1.81%.

Some entries from above, unchanged:

compound,Percent Effect
Cc1nnc(C2CCCN2)o1 (centres unmarked),-4.692
Cn1ccnc1C1CCCN1C(=O)c1ccccc1F (centres unmarked),5.392
Cc1nc(C)c(C(=O)NCCC2CCCN2C)o1 (centres unmarked),-2.291
CSCCC(NS(=O)(=O)c1ccc(C)cc1)C(N)=O (centres unmarked),-9.904

From ChEMBL document CHEMBL3988442, “University of Dundee, Small-Polar-MMV Screening Library” (2021).